# Data as given in PubChem BioAssay AID504808 (Drosophila RNAi Screening Center, 2011)
# Purpose: 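Fly genes required to hold E2F transcription in check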 (primary screen)
# Cells: Drosophila S2 cells
# Knock-down reagent: long dsRNA against Drosophila genes
# Read-out: 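Firefly luciferase driven by E2F sites, normalised to Renilla luciferase on the same minimal promoter, measured by plate reader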
# Reading the numbers: E2F firefly: higher = more E2F reporter activity; Renilla normaliser: higher = more normaliser reporter signal
# Active means: 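Called active if the normalised E2F reporter went up by over 50%; the cutoff is arbitrary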
# The deposit covers about 21,000 reagents; below is a random part of those with a known target gene and a result. Of all reagents, 18 (0.084%) got an active call. 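Raw counts without plate normalisation, one of two replicates; the ratio scores behind the calls were not deposited.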 Entries without a mark were called inactive. Reagents against one gene are numbered here. Not stated in the record: the amount of reagent, the time to read-out.
target,reagent no.,"E2F firefly, rep 1","Renilla normaliser, rep 1"
disp (dispatched),1,1.32e5,6896
CG34447,1,1.60e5,5378
CG8785,1,3051,187
CG34316,1,83472,2996
AlkB,1,85211,3067
mRpS10 (mitochondrial ribosomal protein S10),1,1.09e5,5878
spartin,1,1.37e5,6180
CG11828,1,1.18e5,6516
CG32815,1,66510,3921
Hnf4 (Hepatocyte nuclear factor 4),1,1.41e5,6966
Hnf4 (Hepatocyte nuclear factor 4),2,44754,3508
CG12307,1,1.49e5,5593
CG34040,1,1.11e5,3301
stretch (retired record),1,1.00e5,4238
stretch (retired record),2,1.32e5,6052
stretch (retired record),3,1.40e5,5977
stretch (retired record),4,1.44e5,6080
stretch (retired record),5,1.32e5,6005
CG31635,1,1.72e5,5739
CG31635,2,1.39e5,5298
CG31784,1,1.26e5,5222
mi (minus),1,99257,197
TwdlY (TweedleY),1,83662,2795
HDAC1 (Histone deacetylase 1),1,53351,3158
b6,1,1.32e5,6547
Paip1 (Poly(A) binding protein interacting protein 1),1,62061,3120
Rtca (RNA 3'-terminal phosphate cyclase),1,1868,704
CG9967,1,70477,3046
CG42582 (retired record),1,85620,2756
CG11370,1,1.27e5,8518
lsn (larsen),1,1.22e5,6852
vir-1 (virus-induced RNA 1),1,95119,4093
vir-1 (virus-induced RNA 1),2,89973,4738
CG34265,1,1.48e5,4664
CG5577,1,68473,3673
"AP-1mu (Adaptor Protein complex 1, mu subunit)",1,74755,3810
CR30029 (pseudo),1,98408,4619
mRpL21 (mitochondrial ribosomal protein L21),1,1.32e5,7548
mthl11 (methuselah-like 11),1,75842,3869
Grip128,1,8128,892
GluRIID (Glutamate receptor IID),1,1.61e5,8284
ttk (tramtrack),1,83959,2542
ttk (tramtrack),2,1.14e5,4337
CG5568,1,70927,3221
Atpalpha (Na pump alpha subunit),1,69244,3529
Ilp5 (Insulin-like peptide 5),1,1.41e5,4940
Duba (Deubiquitinating enzyme A),1,73743,3070
CG15643,1,2.39e5,7477
Gr59f (Gustatory receptor 59f),1,1.15e5,4521
CG15260,1,1.07e5,4382
mTor (mechanistic Target of rapamycin),1,62737,2565
PAN3 (Poly(A) specific ribonuclease subunit PAN3),1,72743,3014
CG12947,1,1.46e5,6652
CG13474,1,1.76e5,7966
CG31038,1,1702,896
CG31038,2,1.18e5,6506
CG31038,3,1.27e5,7016
eIF2Bdelta (eukaryotic translation initiation factor 2B subunit delta),1,74718,3402
Uba5 (Ubiquitin-like activating enzyme 5),1,1.55e5,6896
Su(var)2-HP2,1,3034,217
Eogt (EGF-domain O-GlcNAc transferase),1,86560,3901
CG6435,1,1.52e5,4655
Zasp66 (Z band alternatively spliced PDZ-motif protein 66),1,1.32e5,4982
Zasp66 (Z band alternatively spliced PDZ-motif protein 66),2,76883,3939
Zasp66 (Z band alternatively spliced PDZ-motif protein 66),3,1.02e5,3428
Cpr65Aw (Cuticular protein 65Aw),1,1.25e5,3801
CNMa (CNMamide),1,88220,4509
Gr21a (Gustatory receptor 21a),1,1.77e5,6338
Mct1 (Monocarboxylate transporter 1),1,1.13e5,6142
ago (archipelago),1,57295,3137
CG1529,1,1.42e5,6556
eIF3f1 (eukaryotic translation initiation factor 3 subunit f1),1,92036,6350
Ir7a (Ionotropic receptor 7a),1,35692,2876
HERC2 (HECT and RLD domain containing protein 2),1,1.34e5,6070
RabX5,1,95231,4065
CG10863,1,71063,3117
CG7706,1,72074,3257
CG12782,1,97207,3904
Ipp (Inositol polyphosphate 1-phosphatase),1,91648,5499
rudhira,1,6015,804
RabX2,1,62162,5295
CG34051,1,78434,3777
btl (breathless),1,1.04e5,4741
Trx2 (Thioredoxin 2),1,1.47e5,5885

Records above whose target name starts with S or s:
target,reagent no.,"E2F firefly, rep 1","Renilla normaliser, rep 1"
spartin,1,1.37e5,6180
stretch (retired record),1,1.00e5,4238
stretch (retired record),2,1.32e5,6052
stretch (retired record),3,1.40e5,5977
stretch (retired record),4,1.44e5,6080
stretch (retired record),5,1.32e5,6005
Su(var)2-HP2,1,3034,217
